Data as given in the supplement of paper PMC10849652.
Some of the results follow.

Sequences of proteins named here, by UniProt entry; tags and fusion partners are left off. A change or cut given only in a name is not applied to a line headed by its entry.
UniProt Q92508: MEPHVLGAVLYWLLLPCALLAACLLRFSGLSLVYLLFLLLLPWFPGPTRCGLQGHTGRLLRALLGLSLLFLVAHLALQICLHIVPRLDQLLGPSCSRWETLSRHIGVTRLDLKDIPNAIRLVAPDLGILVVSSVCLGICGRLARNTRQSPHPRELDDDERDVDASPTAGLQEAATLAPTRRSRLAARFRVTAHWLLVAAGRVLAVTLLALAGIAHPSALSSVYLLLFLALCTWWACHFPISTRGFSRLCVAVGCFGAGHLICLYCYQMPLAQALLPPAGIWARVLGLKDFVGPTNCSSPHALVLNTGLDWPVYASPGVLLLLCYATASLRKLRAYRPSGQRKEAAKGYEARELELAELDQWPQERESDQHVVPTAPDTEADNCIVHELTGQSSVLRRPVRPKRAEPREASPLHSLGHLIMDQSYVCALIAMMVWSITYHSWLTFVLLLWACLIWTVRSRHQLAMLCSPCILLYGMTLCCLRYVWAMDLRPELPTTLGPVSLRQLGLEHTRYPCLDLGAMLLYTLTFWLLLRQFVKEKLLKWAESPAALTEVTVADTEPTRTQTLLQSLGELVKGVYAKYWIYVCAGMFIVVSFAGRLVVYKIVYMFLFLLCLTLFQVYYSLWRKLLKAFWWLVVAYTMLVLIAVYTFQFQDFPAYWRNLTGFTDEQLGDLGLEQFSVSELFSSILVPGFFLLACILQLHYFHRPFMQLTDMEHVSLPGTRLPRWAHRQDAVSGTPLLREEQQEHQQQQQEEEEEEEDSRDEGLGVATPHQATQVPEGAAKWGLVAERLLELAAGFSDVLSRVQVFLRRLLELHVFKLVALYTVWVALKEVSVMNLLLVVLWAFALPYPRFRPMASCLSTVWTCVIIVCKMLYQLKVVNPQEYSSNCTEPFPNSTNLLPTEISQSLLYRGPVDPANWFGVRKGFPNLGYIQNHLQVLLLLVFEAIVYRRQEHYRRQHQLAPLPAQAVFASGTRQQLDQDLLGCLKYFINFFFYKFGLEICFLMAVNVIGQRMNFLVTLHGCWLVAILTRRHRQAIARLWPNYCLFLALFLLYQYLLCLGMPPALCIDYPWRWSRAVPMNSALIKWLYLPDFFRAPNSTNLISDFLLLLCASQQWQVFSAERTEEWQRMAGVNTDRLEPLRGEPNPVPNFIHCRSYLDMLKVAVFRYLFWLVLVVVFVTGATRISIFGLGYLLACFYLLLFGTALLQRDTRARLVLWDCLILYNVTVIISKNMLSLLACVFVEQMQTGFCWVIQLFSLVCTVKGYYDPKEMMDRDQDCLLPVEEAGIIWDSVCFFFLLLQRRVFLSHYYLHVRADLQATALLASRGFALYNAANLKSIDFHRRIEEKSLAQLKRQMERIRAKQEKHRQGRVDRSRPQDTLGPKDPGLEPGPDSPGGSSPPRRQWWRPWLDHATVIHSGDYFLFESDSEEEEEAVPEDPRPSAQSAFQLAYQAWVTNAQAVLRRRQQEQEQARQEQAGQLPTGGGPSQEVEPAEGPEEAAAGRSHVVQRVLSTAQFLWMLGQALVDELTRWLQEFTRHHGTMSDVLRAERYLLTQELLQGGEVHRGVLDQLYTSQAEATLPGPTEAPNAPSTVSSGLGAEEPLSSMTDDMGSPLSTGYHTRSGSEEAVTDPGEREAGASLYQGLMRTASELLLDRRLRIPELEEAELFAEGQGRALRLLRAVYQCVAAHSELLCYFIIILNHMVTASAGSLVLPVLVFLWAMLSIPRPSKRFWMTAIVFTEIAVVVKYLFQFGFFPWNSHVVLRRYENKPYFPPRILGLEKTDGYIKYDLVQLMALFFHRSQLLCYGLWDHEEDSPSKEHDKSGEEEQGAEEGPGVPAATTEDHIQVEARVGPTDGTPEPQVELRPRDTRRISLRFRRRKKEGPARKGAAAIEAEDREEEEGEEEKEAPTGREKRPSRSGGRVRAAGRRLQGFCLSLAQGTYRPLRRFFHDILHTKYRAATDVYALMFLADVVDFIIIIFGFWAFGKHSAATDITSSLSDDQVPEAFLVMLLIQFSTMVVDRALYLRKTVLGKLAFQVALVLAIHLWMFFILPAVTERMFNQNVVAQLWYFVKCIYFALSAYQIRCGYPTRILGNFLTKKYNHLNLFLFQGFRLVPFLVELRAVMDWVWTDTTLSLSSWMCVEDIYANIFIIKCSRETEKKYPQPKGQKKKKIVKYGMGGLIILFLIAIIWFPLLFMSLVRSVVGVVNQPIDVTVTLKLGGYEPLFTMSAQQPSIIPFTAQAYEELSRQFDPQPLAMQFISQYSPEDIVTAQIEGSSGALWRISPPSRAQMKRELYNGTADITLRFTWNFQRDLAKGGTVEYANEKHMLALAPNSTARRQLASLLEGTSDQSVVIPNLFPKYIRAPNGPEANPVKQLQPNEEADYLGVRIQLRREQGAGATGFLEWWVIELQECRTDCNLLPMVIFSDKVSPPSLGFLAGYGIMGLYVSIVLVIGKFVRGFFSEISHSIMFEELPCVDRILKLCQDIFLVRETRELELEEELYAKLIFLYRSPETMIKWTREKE
UniProt Q00169: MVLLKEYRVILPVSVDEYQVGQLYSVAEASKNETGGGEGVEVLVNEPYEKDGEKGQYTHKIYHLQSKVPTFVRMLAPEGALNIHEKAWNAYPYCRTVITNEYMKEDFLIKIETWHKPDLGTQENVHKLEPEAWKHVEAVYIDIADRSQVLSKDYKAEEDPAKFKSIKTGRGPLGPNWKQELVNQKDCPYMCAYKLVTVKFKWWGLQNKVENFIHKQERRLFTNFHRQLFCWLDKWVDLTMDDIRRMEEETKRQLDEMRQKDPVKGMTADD
UniProt Q8TCD6: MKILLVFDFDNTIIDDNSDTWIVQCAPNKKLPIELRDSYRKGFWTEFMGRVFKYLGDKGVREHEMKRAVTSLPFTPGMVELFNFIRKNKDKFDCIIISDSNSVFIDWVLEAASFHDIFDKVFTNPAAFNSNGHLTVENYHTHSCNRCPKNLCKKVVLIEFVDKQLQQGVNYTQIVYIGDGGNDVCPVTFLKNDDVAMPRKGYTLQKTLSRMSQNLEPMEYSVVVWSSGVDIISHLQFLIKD
UniProt Q9NRD5, whole entry, looked up: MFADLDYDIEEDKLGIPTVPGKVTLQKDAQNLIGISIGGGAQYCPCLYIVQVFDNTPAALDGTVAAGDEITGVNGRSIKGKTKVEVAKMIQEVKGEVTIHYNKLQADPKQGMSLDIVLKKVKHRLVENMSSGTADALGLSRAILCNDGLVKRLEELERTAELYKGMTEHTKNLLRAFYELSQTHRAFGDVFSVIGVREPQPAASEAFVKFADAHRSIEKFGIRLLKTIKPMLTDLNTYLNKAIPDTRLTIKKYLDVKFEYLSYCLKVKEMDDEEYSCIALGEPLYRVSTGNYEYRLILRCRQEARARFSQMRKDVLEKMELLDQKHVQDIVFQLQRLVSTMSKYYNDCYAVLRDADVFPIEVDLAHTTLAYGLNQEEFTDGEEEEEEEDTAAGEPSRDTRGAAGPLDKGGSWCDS
UniProt Q96BK5: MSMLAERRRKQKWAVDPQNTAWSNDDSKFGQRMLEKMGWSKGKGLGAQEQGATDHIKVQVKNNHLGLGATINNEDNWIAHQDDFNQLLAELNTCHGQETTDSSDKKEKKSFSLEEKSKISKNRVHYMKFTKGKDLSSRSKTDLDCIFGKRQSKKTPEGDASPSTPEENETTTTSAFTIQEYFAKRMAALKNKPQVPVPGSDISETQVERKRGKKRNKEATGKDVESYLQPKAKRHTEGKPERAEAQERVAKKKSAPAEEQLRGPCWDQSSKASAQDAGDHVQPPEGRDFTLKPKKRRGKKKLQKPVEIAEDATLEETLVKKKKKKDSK
UniProt Q4KWH8: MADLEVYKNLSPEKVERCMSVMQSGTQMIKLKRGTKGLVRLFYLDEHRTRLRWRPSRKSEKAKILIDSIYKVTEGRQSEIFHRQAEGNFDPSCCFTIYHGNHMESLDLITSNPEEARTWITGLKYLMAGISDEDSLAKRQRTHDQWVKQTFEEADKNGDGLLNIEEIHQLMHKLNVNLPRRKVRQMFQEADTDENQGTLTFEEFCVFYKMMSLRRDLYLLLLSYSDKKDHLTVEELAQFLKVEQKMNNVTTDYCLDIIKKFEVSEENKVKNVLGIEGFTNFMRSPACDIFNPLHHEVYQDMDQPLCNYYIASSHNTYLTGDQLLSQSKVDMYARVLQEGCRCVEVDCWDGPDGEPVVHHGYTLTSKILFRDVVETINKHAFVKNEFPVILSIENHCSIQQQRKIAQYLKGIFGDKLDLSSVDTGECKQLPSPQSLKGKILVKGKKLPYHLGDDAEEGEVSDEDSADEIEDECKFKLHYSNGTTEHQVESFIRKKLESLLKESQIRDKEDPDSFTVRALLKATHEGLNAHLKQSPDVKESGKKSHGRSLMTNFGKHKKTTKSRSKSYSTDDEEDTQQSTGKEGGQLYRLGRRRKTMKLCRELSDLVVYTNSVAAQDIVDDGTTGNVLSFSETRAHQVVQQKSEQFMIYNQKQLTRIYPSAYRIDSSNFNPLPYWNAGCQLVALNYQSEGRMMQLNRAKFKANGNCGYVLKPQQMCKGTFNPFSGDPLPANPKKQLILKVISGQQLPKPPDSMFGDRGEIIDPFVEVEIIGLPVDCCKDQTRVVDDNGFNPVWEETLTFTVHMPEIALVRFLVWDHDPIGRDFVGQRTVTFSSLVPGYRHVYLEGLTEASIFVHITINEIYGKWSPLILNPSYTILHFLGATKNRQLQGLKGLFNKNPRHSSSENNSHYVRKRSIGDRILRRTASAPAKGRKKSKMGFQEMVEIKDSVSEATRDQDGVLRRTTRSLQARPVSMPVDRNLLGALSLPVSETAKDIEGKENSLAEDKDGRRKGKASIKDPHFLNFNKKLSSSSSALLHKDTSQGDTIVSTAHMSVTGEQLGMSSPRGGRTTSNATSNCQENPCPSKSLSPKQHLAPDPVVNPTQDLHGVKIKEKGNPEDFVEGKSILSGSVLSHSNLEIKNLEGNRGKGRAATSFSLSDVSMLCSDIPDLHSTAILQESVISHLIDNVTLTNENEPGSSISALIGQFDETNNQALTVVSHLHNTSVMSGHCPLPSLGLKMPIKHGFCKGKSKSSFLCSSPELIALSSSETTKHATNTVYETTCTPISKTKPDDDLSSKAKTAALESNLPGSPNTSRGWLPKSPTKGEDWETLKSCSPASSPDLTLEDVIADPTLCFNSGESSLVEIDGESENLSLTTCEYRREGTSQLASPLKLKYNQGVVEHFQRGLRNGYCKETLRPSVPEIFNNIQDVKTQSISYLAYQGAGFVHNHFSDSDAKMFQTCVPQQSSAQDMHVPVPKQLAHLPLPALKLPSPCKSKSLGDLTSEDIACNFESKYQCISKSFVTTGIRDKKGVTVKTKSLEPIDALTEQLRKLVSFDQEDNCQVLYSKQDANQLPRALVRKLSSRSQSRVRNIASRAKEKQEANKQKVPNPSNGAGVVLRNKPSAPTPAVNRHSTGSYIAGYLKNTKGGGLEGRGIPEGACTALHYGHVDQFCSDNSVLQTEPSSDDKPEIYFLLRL
UniProt P78356: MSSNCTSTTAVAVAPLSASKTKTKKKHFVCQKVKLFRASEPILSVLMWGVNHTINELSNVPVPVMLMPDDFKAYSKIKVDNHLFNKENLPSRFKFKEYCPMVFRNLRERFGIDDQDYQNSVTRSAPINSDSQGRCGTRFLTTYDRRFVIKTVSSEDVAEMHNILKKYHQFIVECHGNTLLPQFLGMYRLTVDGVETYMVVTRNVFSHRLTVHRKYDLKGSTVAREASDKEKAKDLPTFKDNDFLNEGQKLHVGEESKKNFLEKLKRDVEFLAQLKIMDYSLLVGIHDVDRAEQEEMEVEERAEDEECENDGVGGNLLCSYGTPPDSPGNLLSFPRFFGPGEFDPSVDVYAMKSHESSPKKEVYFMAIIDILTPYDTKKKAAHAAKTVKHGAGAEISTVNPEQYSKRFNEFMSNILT
UniProt Q9NRX4: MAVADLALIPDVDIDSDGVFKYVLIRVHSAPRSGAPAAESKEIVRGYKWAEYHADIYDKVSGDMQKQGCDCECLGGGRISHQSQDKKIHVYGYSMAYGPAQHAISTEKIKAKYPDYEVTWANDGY
UniProt Q969N2: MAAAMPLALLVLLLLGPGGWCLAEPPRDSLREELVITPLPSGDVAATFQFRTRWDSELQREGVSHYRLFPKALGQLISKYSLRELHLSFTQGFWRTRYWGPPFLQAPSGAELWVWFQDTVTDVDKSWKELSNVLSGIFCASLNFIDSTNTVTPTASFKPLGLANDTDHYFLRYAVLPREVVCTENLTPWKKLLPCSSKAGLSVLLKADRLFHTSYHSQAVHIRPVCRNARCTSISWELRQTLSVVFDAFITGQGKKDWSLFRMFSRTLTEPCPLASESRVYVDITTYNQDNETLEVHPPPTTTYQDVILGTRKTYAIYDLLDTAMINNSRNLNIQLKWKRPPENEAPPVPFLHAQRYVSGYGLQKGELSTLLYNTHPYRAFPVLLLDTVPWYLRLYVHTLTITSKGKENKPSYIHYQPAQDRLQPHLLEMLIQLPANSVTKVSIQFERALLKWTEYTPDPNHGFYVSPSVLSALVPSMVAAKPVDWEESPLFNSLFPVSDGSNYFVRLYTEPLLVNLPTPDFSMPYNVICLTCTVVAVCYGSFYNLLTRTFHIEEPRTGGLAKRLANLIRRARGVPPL

Assays:
Experiment in all cases: log2 fold change, soluble protein after heating vs DMSO (PISA); higher = thermal stabilisation; K562 lysate, 10 uM; active = over 0.2 and 3.5 SD of the protein, either way, in both replicates (recomputed)
[1] = compound: C1=CC=C(C=C1)[C@H](COC2=CC3=C(C=C2)NC(=O)N3)NC(=O)C4=CC=CN(C4=O)CC5=CC(=C(C=C5)F)F
Procedure, shortened: (§1)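 Log-two fold change in thermal stability relative to solvent controls is reported from duplicates. For each sample, crude K562 extract from dounce-homogenised pellets in PBS pH 7.4 with 1 mM MgCl2, at 1 mg/mL protein, was treated with 10 μM compound for 30 min. Aliquots heated for 3 min across 48°C-58°C were pooled, brought to 0.5% NP-40 at 4°C and cleared at 21,000xg for 90 min. The supernatant was quantified by TMTpro 16plex LC-MS/MS with channel sums equalised.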

[2] = compound: CC1=C(SC2=C1C(=N[C@H](C3=NN=C(N32)C)CC(=O)N)C4=CC=C(C=C4)Cl)C
Procedure, shortened: as §1

[3] = compound: CC1=C2C(=CC=C1)N=C(N(C2=O)C3=CC=CC=C3C)CN4C=NC5=C(N=CN=C54)N
Procedure, shortened: as §1

[4] = compound: Cc1sc2c(c1C)C(c1ccc(Cl)cc1)=N[C@@H](CC(=O)OC(C)(C)C)c1nnc(C)n1-2
Procedure, shortened: as §1

[5] = compound: c1ccc([C@@H]2C[C@H]2NC2CCNCC2)cc1
Procedure, shortened: as §1

Target | log2 fold change [1] | log2 fold change [2] | log2 fold change [3] | log2 fold change [4] | log2 fold change [5]
PLCB2 (UniProt Q00722) | inactive: -0.083 | inactive: -0.13 | inactive: -0.071 | inactive: 0.106 | inactive: 0.017
PIEZO1 (UniProt Q92508) | inactive: -0.003 | inactive: 0.021 | inactive: -0.001 | inactive: 0.005 | inactive: -0.018
PIN1 (UniProt Q13526) | inactive: 0.012 | inactive: -0.068 | inactive: -0.006 | inactive: 0.012 | inactive: -0.018
PITPNA (UniProt Q00169) | inactive: 0.026 | inactive: 0.035 | inactive: 0.02 | inactive: -0.048 | inactive: 0.044
PHOSPHO2 (UniProt Q8TCD6) | inactive: -0.029 | inactive: 0.02 | inactive: 0.046 | inactive: -0.053 | inactive: 0.061
PHKA1 (UniProt P46020) | inactive: 0.033 | inactive: 0.02 | inactive: 0 | inactive: -0.008 | inactive: 0.001
PICK1 (UniProt Q9NRD5) | inactive: -0.034 | inactive: -0.004 | inactive: -0.057 | inactive: 0.087 | inactive: -0.047
PKNOX1 (UniProt P55347) | inactive: 0.109 | inactive: 0.115 | inactive: 0.044 | inactive: -0.002 | inactive: -0.002
PINX1 (UniProt Q96BK5) | inactive: 0.148 | inactive: -0.001 | inactive: -0.184 | inactive: 0.109 | inactive: -0.068
PLCH1 (UniProt Q4KWH8) | inactive: -0.018 | inactive: 0.099 | inactive: -0.069 | inactive: -0.009 | inactive: 0.089
PIP4K2B (UniProt P78356) | inactive: -0.063 | inactive: -0.078 | inactive: -0.014 | inactive: 0.036 | inactive: -0.108
PLA2G4B isoform 6 (UniProt P0C869) | inactive: -0.003 | inactive: 0.024 | inactive: -0.052 | inactive: 0.099 | inactive: -0.019
PKN1 isoform 2 (UniProt Q16512) | inactive: -0.003 | inactive: 0.017 | inactive: 0.023 | inactive: 0.029 | inactive: 0.022
PGM2 (UniProt Q96G03) | inactive: 0.017 | inactive: 0.021 | inactive: 0.005 | inactive: -0.002 | inactive: -0.022
PIK3C3 (UniProt Q8NEB9) | inactive: -0.041 | inactive: -0.032 | inactive: -0.036 | inactive: -0.014 | inactive: -0.114
PIR (UniProt O00625) | inactive: -0.013 | inactive: 0.017 | inactive: 0.026 | inactive: 0.009 | inactive: 0.06
PITHD1 (UniProt Q9GZP4) | inactive: 0.066 | inactive: -0.068 | inactive: 0.023 | inactive: -0.037 | inactive: -0.014
PIK3CD (UniProt O00329) | inactive: -0.053 | inactive: 0.075 | active: 0.443 | inactive: -0.027 | inactive: 0.043
PIN4 isoform 2 (UniProt Q9Y237) | inactive: 0.003 | inactive: 0.001 | inactive: 0.014 | inactive: -0.048 | inactive: -0.029
PIK3CG (UniProt P48736) | inactive: -0.076 | inactive: -0.065 | inactive: 0.109 | inactive: -0.047 | inactive: -0.105
PHPT1 (UniProt Q9NRX4) | inactive: -0.02 | inactive: -0.031 | inactive: -0.027 | inactive: 0.007 | inactive: 0.012
PIBF1 (UniProt Q8WXW3) | inactive: 0.079 | inactive: -0.009 | inactive: -0.051 | inactive: -0.026 | inactive: -0.046
PIGT (UniProt Q969N2) | inactive: -0.05 | inactive: 0.02 | inactive: 0.006 | inactive: 0.009 | inactive: -0.014
PHRF1 (UniProt Q9P1Y6) | inactive: 0.07 | inactive: 0.033 | inactive: -0.032 | inactive: 0.032 | inactive: -0.015
